Some of the results follow. Most values lie at the level of the controls, where differences are scatter.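 Reh, a human leukemia cell line, is read out by flow cytometry as the median γH2AX antibody signal in S-phase cells; the score counts standard deviations from the median difference of each paired plate set. Scores above 2.5 were candidate hits; scores below -2 mark compounds lowering MK1775-induced damage.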

In the assay the test system is Reh. The assay can be described thus: Z' of S-phase gammaH2AX difference (drug + MK1775 minus drug alone) (Z-score); higher = stronger synergistic S-phase DNA damage with MK1775. The note with it: MK1775 concentration 400 nM; first compound 10 µM; 4 h.
Regarding `O=c1c(O)c(-c2ccc(O)cc2O)oc2cc(O)cc(O)c12` [Morin] + C=CCn1c(=O)c2cnc(Nc3ccc(N4CCN(C)CC4)cc3)nc2n1-c1cccc(C(C)(C)O)n1 [MK1775], the “Z' of S-phase gammaH2AX difference (Z-score)” value was inactive: 0.859.
Turning to `CC(/C=C/c1cccc(Oc2ccc(F)cc2)c1)N(O)C(N)=O` (stereo not given) + C=CCn1c(=O)c2cnc(Nc3ccc(N4CCN(C)CC4)cc3)nc2n1-c1cccc(C(C)(C)O)n1 [MK1775], the “Z' of S-phase gammaH2AX difference (Z-score)” value was inactive: -0.712.
The same measure for `CC(=O)Nc1nc(C)c(-c2ccc(Cl)c(S(=O)(=O)NCCO)c2)s1` + C=CCn1c(=O)c2cnc(Nc3ccc(N4CCN(C)CC4)cc3)nc2n1-c1cccc(C(C)(C)O)n1 [MK1775]: inactive: -0.178; for `Cc1ccc([N+](=O)[O-])cc1S(=O)(=O)N(C)C` + C=CCn1c(=O)c2cnc(Nc3ccc(N4CCN(C)CC4)cc3)nc2n1-c1cccc(C(C)(C)O)n1 [MK1775]: inactive: -0.0802.
Consider `CC(C)C[C@H](NP(=O)(O)O[C@H]1O[C@H](C)[C@@H](O)[C@H](O)[C@@H]1O)C(=O)N[C@@H](Cc1c[nH]c2ccccc12)C(=O)O` [Phosphoramidon disodium] + C=CCn1c(=O)c2cnc(Nc3ccc(N4CCN(C)CC4)cc3)nc2n1-c1cccc(C(C)(C)O)n1 [MK1775], for which the “Z' of S-phase gammaH2AX difference (Z-score)” value is inactive: -0.199.
For `Oc1ccc([C@@H]2CNCc3sccc32)cc1O` + C=CCn1c(=O)c2cnc(Nc3ccc(N4CCN(C)CC4)cc3)nc2n1-c1cccc(C(C)(C)O)n1 [MK1775], the “Z' of S-phase gammaH2AX difference (Z-score)” value is inactive: -0.203.
The same measure for `Nc1nc2c(nc(Br)n2C2OC3COP(=O)(O)O[C@@H]3C2O)c(=O)[nH]1` (stereo not given in full) [8-Bromo-cGMP sodium] + C=CCn1c(=O)c2cnc(Nc3ccc(N4CCN(C)CC4)cc3)nc2n1-c1cccc(C(C)(C)O)n1 [MK1775]: inactive: -0.354.
With `CN(C)c1nc(N(C)C)nc(N(C)C)n1` [Altretamine (Hexalen)] + C=CCn1c(=O)c2cnc(Nc3ccc(N4CCN(C)CC4)cc3)nc2n1-c1cccc(C(C)(C)O)n1 [MK1775], the “Z' of S-phase gammaH2AX difference (Z-score)” value was inactive: -0.301.
For the compound `CN(C)c1nc(N(C)C)nc(N(C)C)n1` [Altretamine] + C=CCn1c(=O)c2cnc(Nc3ccc(N4CCN(C)CC4)cc3)nc2n1-c1cccc(C(C)(C)O)n1 [MK1775], the “Z' of S-phase gammaH2AX difference (Z-score)” value is inactive: 0.15.
The same measure for `CC(=O)O[C@]1(C(C)=O)CC[C@H]2[C@@H]3C[C@H](C)C4=CC(=O)CC[C@]4(C)[C@H]3CC[C@@]21C` [Medroxyprogesterone acetate] + C=CCn1c(=O)c2cnc(Nc3ccc(N4CCN(C)CC4)cc3)nc2n1-c1cccc(C(C)(C)O)n1 [MK1775]: inactive: 0.104.
